Experimental findings from patent CN117425675A are described below.

Sequences of proteins named here, by UniProt entry; tags and fusion partners are left off. A change or cut given only in a name is not applied to a line headed by its entry.
UniProt P20333: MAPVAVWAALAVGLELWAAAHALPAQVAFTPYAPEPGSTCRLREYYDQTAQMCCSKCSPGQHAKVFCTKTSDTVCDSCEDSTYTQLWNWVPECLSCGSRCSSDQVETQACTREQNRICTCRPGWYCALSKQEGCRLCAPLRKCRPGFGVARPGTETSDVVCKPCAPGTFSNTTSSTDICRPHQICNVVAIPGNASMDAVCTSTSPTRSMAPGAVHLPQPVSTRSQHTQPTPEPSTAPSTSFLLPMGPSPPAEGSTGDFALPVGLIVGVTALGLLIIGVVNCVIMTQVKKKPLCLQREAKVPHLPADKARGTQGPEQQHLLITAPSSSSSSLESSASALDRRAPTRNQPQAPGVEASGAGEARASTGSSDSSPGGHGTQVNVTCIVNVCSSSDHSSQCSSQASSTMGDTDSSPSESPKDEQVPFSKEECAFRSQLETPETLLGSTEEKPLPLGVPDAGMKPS

These are yes or no findings as the source states them, for the method shown. Some entries that bind do so weakly or less than the wild type.

The target in test [1] is human TNFR2 expressed on cells (stably overexpressed on HEK293T, CHO-K1 or Jurkat cells; endogenous on THP1) (human (Homo sapiens)) (UniProt P20333). The test is described as follows: cell binding (flow cytometry / imaging). Background: A flow cytometer gives signals particle by particle.
Test [2] has the same target. The experiment in a line: flow cytometry on HEK293T cells stably overexpressing human TNFR2.

B1: R2_mAb-3 (antibody, V domains shown)
VH: QVQLQESGPGLVKPSETLSLTCTVSGGSISSYYWSWIRQAPGKGLEWIGYIYYSGSTNYNPSLKSRVTISVDTSKNQFSLKLSSVTAADTAVYYCARDDGSSDYGMDVWGQGTTVTVSS
VL: AIQLTQSPSSLSASVGDRVTITCRASQGISSALAWYQQKPGKAPKLLIYDASSLESGVPSRFTGSGTDFTLTISSLQPEDFATYYCQQFNNYMYTFGQGTKLEIK
As for B1, the binding entry in test [1] and in test [2] was “binds” in each case.
